Test results reported in article PMC12646662.
No constants are given. Whether binding was seen depends on the method and setting. Binding seen in cells or lysates may run through a third protein. Some entries that bind do so weakly or less than the wild type. For some assays here: Where a sequence is shown, tags or fusion partners need not be part of it. Blank lines part the entries; values can stand above or below the binder they belong to.

Key:
[1] = target: T1, Catenin Delta 1 (CTNND1), endogenous in SK-Mel-28 cells (human (endogenous in SK-Mel-28)) (UniProt O60716); test: co-IP; anti-CTNND1 immunoprecipitates from SK-Mel-28 whole-cell lysate, immunoblot; endogenous proteins
T1 sequence: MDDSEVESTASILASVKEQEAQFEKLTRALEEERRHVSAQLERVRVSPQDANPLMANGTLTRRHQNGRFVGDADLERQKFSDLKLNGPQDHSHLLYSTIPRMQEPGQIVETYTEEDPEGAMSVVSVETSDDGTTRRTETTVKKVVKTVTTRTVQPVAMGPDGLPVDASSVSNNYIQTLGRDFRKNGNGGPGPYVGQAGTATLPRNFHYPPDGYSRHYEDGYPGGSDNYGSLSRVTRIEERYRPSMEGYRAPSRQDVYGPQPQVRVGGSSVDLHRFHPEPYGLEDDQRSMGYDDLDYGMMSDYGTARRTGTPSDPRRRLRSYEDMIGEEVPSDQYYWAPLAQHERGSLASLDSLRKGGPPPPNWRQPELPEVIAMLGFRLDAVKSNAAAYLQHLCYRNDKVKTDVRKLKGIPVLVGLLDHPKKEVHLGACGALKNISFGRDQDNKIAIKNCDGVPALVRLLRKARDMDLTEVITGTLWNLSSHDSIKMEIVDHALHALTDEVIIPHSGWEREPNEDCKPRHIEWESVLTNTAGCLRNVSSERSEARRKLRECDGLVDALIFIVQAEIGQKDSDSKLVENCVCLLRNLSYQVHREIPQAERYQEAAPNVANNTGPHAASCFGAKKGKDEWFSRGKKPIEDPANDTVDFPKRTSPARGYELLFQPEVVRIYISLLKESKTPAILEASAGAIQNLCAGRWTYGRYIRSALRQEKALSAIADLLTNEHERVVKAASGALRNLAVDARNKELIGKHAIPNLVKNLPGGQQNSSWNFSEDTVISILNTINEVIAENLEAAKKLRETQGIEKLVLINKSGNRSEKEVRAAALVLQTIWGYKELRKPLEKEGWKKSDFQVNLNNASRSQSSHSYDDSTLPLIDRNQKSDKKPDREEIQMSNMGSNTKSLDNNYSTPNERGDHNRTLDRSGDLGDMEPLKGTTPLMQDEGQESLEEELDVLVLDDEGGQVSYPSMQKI

[2] = target: T2, Flag-CTNND1 (HEK293T) (UniProt O60716); test: co-IP; HEK293T cells transfected with HA-ZDHHC13 and Flag-CTNND1; anti-Flag or anti-HA immunoprecipitates, immunoblot
T2 sequence: T1 sequence

- binding [1]: binds
B1: ZDHHC13, endogenous in SK-Mel-28 cells (enzyme, UniProt Q8IUH4 1-622)
chain: MEGPGLGSQCRNHSHGPHPPGFGRYGICAHENKELANAREALPLIEDSSNCDIVKATQYGIFERCKELVEAGYDVRQPDKENVSLLHWAAINNRLDLVKFYISKGAVVDQLGGDLNSTPLHWAIRQGHLPMVILLLQHGADPTLIDGEGFSSIHLAVLFQHMPIIAYLISKGQSVNMTDVNGQTPLMLSAHKVIGPEPTGFLLKFNPSLNVVDKIHQNTPLHWAVAAGNVNAVDKLLEAGSSLDIQNVKGETPLDMALQNKNQLIIHMLKTEAKMRANQKFRLWRWLQKCELFLLLMLSVITMWAIGYILDFNSDSWLLKGCLLVTLFFLTSLFPRFLVGYKNLVYLPTAFLLSSVFWIFMTWFILFFPDLAGAPFYFSFIFSIVAFLYFFYKTWATDPGFTKASEEEKKVNIITLAETGSLDFRTFCTSCLIRKPLRSLHCHVCNCCVARYDQHCLWTGRCIGFGNHHYYIFFLFFLSMVCGWIIYGSFIYLSSHCATTFKEDGLWTYLNQIVACSPWVLYILMLATFHFSWSTFLLLNQLFQIAFLGLTSHERISLQKQSKHMKQTLSLRKTPYNLGFMQNLADFFQCGCFGLVKPCVVDWTSQYTMVFHPAREKVLRSV

- binding [2]: binds
B2: HA-ZDHHC13 (HEK293T) (enzyme, UniProt Q8IUH4 1-622)
chain: B1 chain
